# The list shows a part of the results.
# B1: TAL6-4LysM (Trichoderma atroviride) (protein)
# chain: AADSIPSISPTGIITPTPTQSGMVSNCNKFYDVHSNDGCSAIASSQHVDLSSLYKWNPAIKTDCSGLQASVYVCIGILTTSMSTTSKLPTTTSKPSTTSKPPTGITTPTPTQSGMVKNCNKFYDVHSGDGCSAIASSQKVNLSSFYLWNPAVKTDCSGLQASVFVCIGTLTTSMSTTTSKLPTTTSKPSTTSKPPTGIITPTPTQNGMVKNCNKFYDVHSGDGCSAIASSQKVNLSSFYLWNPAVKTDCSGLQASVFVCVGTATTTTAAGITTPTPTQSGMVSGCNKFYDVHAGDGCSAIASSQKIALSSLYKWNPAVKTDCSGLQASVYICIGVGNAAAARVTGALEQKLISEEDLNSAVDHHHHHH
# Key:
# Experiment in all cases: glycan array binding signal (z-score within array); higher = stronger binding
# Conditions in all cases: glycan notation: IUPAC condensed, linker removed
# Neu5Ac(a2-8)Neu5Ac = target: Neu5Ac(a2-8)Neu5Ac
# In short: (§1)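 Glycan array binding is given as a within-array Z-score, which can be read as non-binding when negative. The arrays, 3228 of them, came from the Consortium for Functional Glycomics database and were retained only where the protein sequence was available. Z-scores were averaged across arrays of the same protein sequence at different concentrations or buffers and across linkers.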
# [1] = target: Neu5Ac(a2-8)Neu5Ac(a2-3)Gal(b1-3)GalNAc(b1-4)[Neu5Ac(a2-3)]Gal(b1-4)Glc
# In short: as §1
# [2] = target: Neu5Ac(a2-8)Neu5Ac(a2-3)Gal(b1-3)GalNAc(b1-4)[Neu5Ac(a2-8)Neu5Ac(a2-3)]Gal(b1-4)Glc
# In short: as §1
# [3] = target: Neu5Ac(a2-8)Neu5Ac(a2-3)Gal(b1-4)Glc
# In short: as §1
# [4] = target: Neu5Ac(a2-8)Neu5Ac(a2-3)Gal(b1-4)GlcNAc
# In short: as §1
# [5] = target: Neu5Ac(a2-8)Neu5Ac(a2-3)[Gal(b1-3)GalNAc(b1-4)]Gal(b1-4)Glc
# In short: as §1
# [6] = target: Neu5Ac(a2-8)Neu5Ac(a2-3)[GalNAc(b1-4)]Gal(b1-4)Glc
# In short: as §1
# [7] = target: Neu5Ac(a2-8)Neu5Ac(a2-8)Neu5Ac
# In short: as §1
# [8] = target: Neu5Ac(a2-8)Neu5Ac(a2-8)Neu5Ac(a2-3)Gal(b1-4)Glc
# In short: as §1
# [9] = target: Neu5Ac(a2-8)Neu5Ac(a2-8)Neu5Ac(a2-3)[Gal(b1-3)GalNAc(b1-4)]Gal(b1-4)Glc
# In short: as §1
# [10] = target: Neu5Ac(a2-8)Neu5Ac(a2-8)Neu5Ac(a2-3)[GalNAc(b1-4)]Gal(b1-4)Glc
# In short: as §1
# [11] = target: Neu5Ac(a2-8)Neu5Ac(a2-8)Neu5Ac(a2-8)Neu5Ac(a2-3)[GalNAc(b1-4)]Gal(b1-4)Glc
# In short: as §1
# [12] = target: Neu5Ac(a2-8)Neu5Gc(a2-3)Gal(b1-4)GlcNAc
# In short: as §1
# [13] = target: Neu5Ac(b2-6)Gal(b1-4)GlcNAc
# In short: as §1
# Neu5Ac(b2-6)GalNAc = target: Neu5Ac(b2-6)GalNAc
# In short: as §1
# [14] = target: Neu5Ac9Ac(a2-3)Gal(b1-3)GlcNAc
# In short: as §1
# [15] = target: Neu5Ac9Ac(a2-3)Gal(b1-4)GlcNAc
# In short: as §1
# [16] = target: Neu5Ac9Ac(a2-6)Gal(b1-4)GlcNAc
# In short: as §1
# [17] = target: Neu5Gc(a2-3)Gal(b1-3)GlcNAc
# In short: as §1
# [18] = target: Neu5Gc(a2-3)Gal(b1-3)[Fuc(a1-4)]GlcNAc
# In short: as §1
# Neu5Gc(a2-3)Gal(b1-4)Glc = target: Neu5Gc(a2-3)Gal(b1-4)Glc
# In short: as §1
# [19] = target: Neu5Gc(a2-3)Gal(b1-4)GlcNAc
# In short: as §1
# [20] = target: Neu5Gc(a2-3)Gal(b1-4)GlcNAc(b1-3)Gal(b1-4)GlcNAc(b1-2)Man(a1-3)[Neu5Gc(a2-3)Gal(b1-4)GlcNAc(b1-3)Gal(b1-4)GlcNAc(b1-2)Man(a1-6)]Man(b1-4)GlcNAc(b1-4)GlcNAc
# In short: as §1
# [21] = target: Neu5Gc(a2-3)Gal(b1-4)[Fuc(a1-3)]GlcNAc
# In short: as §1
# [22] = target: Neu5Gc(a2-6)Gal(b1-4)GlcNAc
# In short: as §1
# Neu5Gc(a2-6)GalNAc = target: Neu5Gc(a2-6)GalNAc
# In short: as §1
# [23] = target: Neu5Gc(a2-8)Neu5Ac(a2-3)Gal(b1-4)GlcNAc
# In short: as §1
# [24] = target: Neu5Gc(a2-8)Neu5Gc(a2-3)Gal(b1-4)GlcNAc
# In short: as §1
# [25] = target: Neu5Gc(a2-8)Neu5Gc(a2-3)Gal(b1-4)GlcNAc(b1-3)Gal(b1-4)GlcNAc
# In short: as §1
# [26] = target: Neu5Gc(a2-8)Neu5Gc(a2-6)Gal(b1-4)GlcNAc
# In short: as §1
# [27] = target: Neu5Gc(b2-6)Gal(b1-4)GlcNAc
# In short: as §1
binder,measurement,setting,value
B1,glycan array binding signal (z-score),Neu5Ac(a2-8)Neu5Ac,0.607
same,glycan array binding signal (z-score),[1],-1.44
same,glycan array binding signal (z-score),[2],0.069
same,glycan array binding signal (z-score),[3],-1.49
same,glycan array binding signal (z-score),[4],1.21
same,glycan array binding signal (z-score),[5],-0.586
same,glycan array binding signal (z-score),[6],-0.463
same,glycan array binding signal (z-score),[7],0.49
same,glycan array binding signal (z-score),[8],-1.63
same,glycan array binding signal (z-score),[9],-0.364
same,glycan array binding signal (z-score),[10],-0.514
same,glycan array binding signal (z-score),[11],-0.204
same,glycan array binding signal (z-score),[12],0.658
same,glycan array binding signal (z-score),[13],-0.092
same,glycan array binding signal (z-score),Neu5Ac(b2-6)GalNAc,-1.17
same,glycan array binding signal (z-score),[14],0.627
same,glycan array binding signal (z-score),[15],-1.11
same,glycan array binding signal (z-score),[16],-0.388
same,glycan array binding signal (z-score),[17],0.456
same,glycan array binding signal (z-score),[18],0.443
same,glycan array binding signal (z-score),Neu5Gc(a2-3)Gal(b1-4)Glc,-0.001
same,glycan array binding signal (z-score),[19],-1.52
same,glycan array binding signal (z-score),[20],-0.172
same,glycan array binding signal (z-score),[21],0.157
same,glycan array binding signal (z-score),[22],0.42
same,glycan array binding signal (z-score),Neu5Gc(a2-6)GalNAc,-0.226
same,glycan array binding signal (z-score),[23],0.186
same,glycan array binding signal (z-score),[24],-1.11
same,glycan array binding signal (z-score),[25],0.76
same,glycan array binding signal (z-score),[26],-0.801
same,glycan array binding signal (z-score),[27],-0.286

# Quoted from the entries so far (3 entries):
binder,measurement,setting,value
B1,glycan array binding signal (z-score),[20],-0.172
same,glycan array binding signal (z-score),[21],0.157
same,glycan array binding signal (z-score),[22],0.42
